Experimental data from the supplement of paper PMC5949888.
± gives the standard deviation of the averaged measurements. Most values lie at the floor of the assay. Slopes are relative: functional sequences can read slightly below zero.

test system: Saccharomyces cerevisiae PS128 hsf1 delta, HSF1(1-493) fusion; test: growth estimate (transactivation domain function in HSF1 fusion, heat-shock survival) (a.u. (slope of normalised read count over time)); higher = stronger growth at 37°C, i.e. more transactivation activity; details: library: random library

Substance	growth estimate
LPNGRS	< -0.25
LPNLD	< -0.25
LPNWRPLTSIQDFGEIRQYT	< -0.25
LPP	< -0.25
LPPGLWYFPFLLCNCNQHNE	< -0.25
LPPRRASPQGG	< -0.25
LPPS	< -0.25
LPQQCKRFANSFGRRGSSSA	< -0.25
LPSAPDIYIRLRHERSYVKR	< -0.25
LPSARLQPRNVLYR	< -0.25
LPSSCGLPPSQLSVCAHWNR	< -0.25
LPSTDISDSSAADMLLRLQR	< -0.25
LPTFRDCTDGQKGSKDRESR	< -0.25
LPTFRPRLTRRDGSGPKIKT	< -0.25
LPTGPTELLVAD	< -0.25
LPTTVLRSVEK	< -0.25
LPVCLGKRGRPWSIAS	< -0.25
LPVCSDS	< -0.25
LPVILRHT	< -0.25
LPVRSITFKVSGDSPSLCFS	< -0.25
LPVTCERTSQRRENGPGARL	< -0.25
LPVVC	< -0.25
LPWGIDYQ	< -0.25
LPWSGR	-0.0376
LQACCVTRSQIS	< -0.25
LQAENALPPIVGPLTGIEHR	-0.179

Substance	growth estimate
LQAIVLTV	< -0.25
LQAWRMGPRD	< -0.25
LQCSRKSPIYLPCERLLHWI	< -0.253
LQDHCWNCLT	-0.229
LQFAFMPSECRLKWSMVPGT	< -0.25
LQGAGGALFA	< -0.25
LQGIALTRSLEEAEFGFQVA	< -0.25
LQGQSGRMPMIPDPAGRQTP	< -0.25
LQHRHLARRRCGYGSLDTST	< -0.25
LQINS	< -0.25
LQLAGKLRIVDGGLHFDGKS	< -0.25
LQLGRLC	< -0.25
LQLLEPANGAPSDEPARLNP	< -0.25
LQLWCPRTGTNGVAVRRLST	-0.0607
LQPLPGMGQTMPLTTRSNVG	< -0.25
LQPPSVRRQLVCSEGLGRLR	< -0.25
LQQNVR	< -0.25
LQRAGRLPSPRYPEMRILEA	< -0.25
LQRECHVSVTHLPNIFGLRS	< -0.25
LQRMRLAIAKDHSGTNASEL	< -0.25
LQRPPRILDNSESVVLERRS	< -0.25
LQRRRVAVRIYIVMTWLVWM	< -0.25
LQRSPSMYHGNCSLNL	< -0.25
LQRVALMRGEPIS	< -0.25
LQSRFVDNGLLCALNAALAA	< -0.25
LQSSAGLEHTLLRGFRCEVW	< -0.25

3 entries drawn at random from those above, as already listed:
Substance	growth estimate
LQLLEPANGAPSDEPARLNP	< -0.25
LQFAFMPSECRLKWSMVPGT	< -0.25
LQLWCPRTGTNGVAVRRLST	-0.0607

(continued)

Substance	growth estimate
LQSYKVRFAAD	< -0.25
LQV	-0.2492 ± 0.0012
LQVDGS	< -0.25
LQVPPEPVLDARSSLLGLVQ	< -0.25
LQVR	< -0.25
LQVRFRNIVEANVACHRVVD	< -0.25
LQVVRHCGVGKVLTTIRGGA	< -0.25
LQWELDANPRRTA	< -0.25
LQYKV	< -0.25
LRACCHEALNEAPIGKFPPL	< -0.25
LRADQLQANTRP	< -0.25
LRADVRRIRSGANANLGFAV	< -0.25
LRAFGGHGARI	< -0.25
LRAGRVASKCCQEHSALSNR	< -0.25
LRAVFHARRAHSTPERVNFL	< -0.25
LRCDQSYMEPDRKGTKVP	< -0.25
LRCHVVKSARRALRANL	< -0.25
LRCPISL	< -0.25
LRCRVRKEQSFRVPRAQILL	< -0.25
LRCYRNTANIGLFVTGSQRR	< -0.25
LRDGLAADWSVAVSLTYTGI	< -0.25
LRDQCNFIFWPSGQIRA	< -0.25
LRDTYMLHDVITVDL	< -0.25
LRDWWGVCLRC	< -0.25
LRE	< -0.25
LREADS	< -0.25

Exported as labelled records: entries from further up.
LPPGLWYFPFLLCNCNQHNE
  growth estimate = < -0.25
LPQQCKRFANSFGRRGSSSA
  growth estimate = < -0.25
LQFAFMPSECRLKWSMVPGT
  growth estimate = < -0.25
LREADS
  growth estimate = < -0.25

(cont.)

Substance	growth estimate
LRECRGHPVIRTIA	< -0.25
LRELKF	< -0.25
LRELTCCSPMCSFCHQYNTR	< -0.25
LREN	< -0.25
LRENGQ	< -0.25
LREYPRSRVGYGSLITGVKR	< -0.25
LRFD	-0.246
LRFRIRVTHG	< -0.25
LRFRVPDF	< -0.25
LRG	-0.24 ± 0.013
LRGDG	< -0.25
LRGDLSSRALGVSLKDGHIS	< -0.25
LRGFDQRRTYLAG	< -0.25
LRGILNRVGICFLYR	< -0.25
LRGISPREDIVS	< -0.25
LRGLLEYCHATKERKMKMAT	< -0.25
LRGPCGFIRP	< -0.25
LRGPSSR	< -0.25
LRGQSDCRFTRVKVLQRQLF	< -0.25
LRGRFSEWRL	< -0.25
LRGRY	< -0.25
LRGVAFL	< -0.25
LRGVLWVRDGGPRMSRWRES	< -0.25
